# Laboratory results as given in the supplement of paper PMC12067093, “Discovery and optimisation of a covalent ligand for TRIM25 and its application to targeted protein ubiquitination” (Chemical Science, 2025).
# The chains behind the UniProt entries cited, without tags or fusion partners. Where a name states a change or a piece, a line headed by the entry shows the natural chain unless it says otherwise.
# UniProt Q9H0A0: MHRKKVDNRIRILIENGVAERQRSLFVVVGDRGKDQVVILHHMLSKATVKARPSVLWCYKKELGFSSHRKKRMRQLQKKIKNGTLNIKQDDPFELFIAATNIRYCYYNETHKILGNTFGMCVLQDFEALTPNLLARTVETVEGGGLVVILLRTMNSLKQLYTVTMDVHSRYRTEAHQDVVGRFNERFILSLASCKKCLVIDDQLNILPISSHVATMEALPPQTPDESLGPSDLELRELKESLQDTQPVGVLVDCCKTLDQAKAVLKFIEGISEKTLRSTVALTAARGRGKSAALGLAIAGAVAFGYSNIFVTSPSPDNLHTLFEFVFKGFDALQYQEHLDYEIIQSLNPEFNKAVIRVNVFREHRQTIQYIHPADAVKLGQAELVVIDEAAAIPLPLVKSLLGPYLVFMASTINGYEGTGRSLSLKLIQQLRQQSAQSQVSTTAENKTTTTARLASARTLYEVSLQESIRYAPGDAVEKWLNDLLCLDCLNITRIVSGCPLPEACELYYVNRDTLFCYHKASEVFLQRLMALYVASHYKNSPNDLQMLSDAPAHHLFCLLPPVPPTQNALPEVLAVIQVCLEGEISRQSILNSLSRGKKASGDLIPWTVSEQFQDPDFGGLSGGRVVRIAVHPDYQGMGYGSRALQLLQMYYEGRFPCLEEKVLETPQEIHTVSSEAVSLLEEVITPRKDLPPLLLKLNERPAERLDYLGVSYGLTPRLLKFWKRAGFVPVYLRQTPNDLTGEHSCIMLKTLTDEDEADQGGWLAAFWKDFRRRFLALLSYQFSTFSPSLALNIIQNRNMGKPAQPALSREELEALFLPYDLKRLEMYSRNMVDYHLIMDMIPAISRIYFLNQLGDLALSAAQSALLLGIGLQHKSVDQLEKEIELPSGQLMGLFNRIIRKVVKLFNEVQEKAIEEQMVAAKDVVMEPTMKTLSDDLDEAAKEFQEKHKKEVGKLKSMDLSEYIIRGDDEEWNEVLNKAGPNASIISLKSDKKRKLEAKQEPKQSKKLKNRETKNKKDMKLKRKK
# UniProt P24844: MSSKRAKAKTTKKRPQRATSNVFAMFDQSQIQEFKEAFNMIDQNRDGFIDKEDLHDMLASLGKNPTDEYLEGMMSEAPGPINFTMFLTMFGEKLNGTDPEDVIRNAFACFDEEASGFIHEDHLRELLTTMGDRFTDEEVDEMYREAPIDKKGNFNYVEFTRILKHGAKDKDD
# UniProt Q9BXJ9: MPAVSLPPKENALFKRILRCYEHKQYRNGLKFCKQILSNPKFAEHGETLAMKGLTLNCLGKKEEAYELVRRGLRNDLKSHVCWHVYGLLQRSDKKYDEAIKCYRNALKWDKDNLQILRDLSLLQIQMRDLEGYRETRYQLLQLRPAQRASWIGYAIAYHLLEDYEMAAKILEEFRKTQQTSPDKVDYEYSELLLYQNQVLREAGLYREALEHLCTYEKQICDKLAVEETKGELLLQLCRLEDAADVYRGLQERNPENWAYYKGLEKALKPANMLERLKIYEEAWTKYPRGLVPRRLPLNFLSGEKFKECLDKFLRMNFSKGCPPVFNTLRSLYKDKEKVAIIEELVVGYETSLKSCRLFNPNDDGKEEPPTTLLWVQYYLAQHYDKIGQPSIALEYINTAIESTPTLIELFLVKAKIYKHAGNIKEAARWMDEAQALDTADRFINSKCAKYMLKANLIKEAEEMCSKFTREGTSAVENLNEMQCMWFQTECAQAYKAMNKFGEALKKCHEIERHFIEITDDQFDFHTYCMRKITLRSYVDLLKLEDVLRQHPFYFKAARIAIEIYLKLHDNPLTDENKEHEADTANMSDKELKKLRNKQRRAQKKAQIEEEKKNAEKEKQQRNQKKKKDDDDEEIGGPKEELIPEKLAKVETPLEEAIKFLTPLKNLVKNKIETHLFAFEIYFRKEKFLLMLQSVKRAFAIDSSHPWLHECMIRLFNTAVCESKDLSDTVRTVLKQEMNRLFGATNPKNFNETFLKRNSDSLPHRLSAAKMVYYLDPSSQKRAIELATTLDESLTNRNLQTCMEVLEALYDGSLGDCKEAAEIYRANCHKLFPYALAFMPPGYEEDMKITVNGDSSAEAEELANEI
# UniProt Q96H55, whole entry, looked up: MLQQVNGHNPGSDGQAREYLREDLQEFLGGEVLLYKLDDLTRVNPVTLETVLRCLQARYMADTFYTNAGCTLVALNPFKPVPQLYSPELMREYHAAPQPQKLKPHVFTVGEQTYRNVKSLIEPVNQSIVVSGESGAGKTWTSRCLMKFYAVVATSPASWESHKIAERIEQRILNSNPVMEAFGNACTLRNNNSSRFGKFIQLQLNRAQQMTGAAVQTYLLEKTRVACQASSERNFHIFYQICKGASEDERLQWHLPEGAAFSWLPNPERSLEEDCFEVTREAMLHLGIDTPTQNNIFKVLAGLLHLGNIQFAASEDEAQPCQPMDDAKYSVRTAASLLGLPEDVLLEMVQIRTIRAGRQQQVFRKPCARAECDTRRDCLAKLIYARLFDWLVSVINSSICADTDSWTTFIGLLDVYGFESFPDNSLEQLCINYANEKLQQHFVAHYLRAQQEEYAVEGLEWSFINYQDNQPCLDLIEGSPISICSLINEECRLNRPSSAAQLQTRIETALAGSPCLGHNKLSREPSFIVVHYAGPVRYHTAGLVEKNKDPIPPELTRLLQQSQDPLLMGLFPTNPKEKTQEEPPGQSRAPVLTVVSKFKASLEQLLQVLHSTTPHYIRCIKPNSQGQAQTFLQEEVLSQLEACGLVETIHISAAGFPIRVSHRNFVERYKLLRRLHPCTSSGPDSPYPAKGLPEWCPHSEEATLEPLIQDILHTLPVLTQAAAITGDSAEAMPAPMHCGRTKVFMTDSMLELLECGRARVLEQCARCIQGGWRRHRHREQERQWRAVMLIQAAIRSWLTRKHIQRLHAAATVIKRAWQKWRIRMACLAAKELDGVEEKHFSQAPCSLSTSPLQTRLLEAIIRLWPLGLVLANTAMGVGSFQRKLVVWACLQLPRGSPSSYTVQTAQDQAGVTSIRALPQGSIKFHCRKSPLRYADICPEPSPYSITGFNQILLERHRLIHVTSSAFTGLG
# UniProt P18440: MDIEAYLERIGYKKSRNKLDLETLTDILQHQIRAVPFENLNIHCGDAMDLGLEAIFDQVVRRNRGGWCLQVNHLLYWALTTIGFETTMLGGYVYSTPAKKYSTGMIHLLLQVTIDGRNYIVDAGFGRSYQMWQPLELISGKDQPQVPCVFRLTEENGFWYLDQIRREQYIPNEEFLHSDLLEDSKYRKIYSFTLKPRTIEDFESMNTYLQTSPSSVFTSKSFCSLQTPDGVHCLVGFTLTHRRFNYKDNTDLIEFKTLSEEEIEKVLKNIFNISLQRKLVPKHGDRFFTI
# UniProt P41227: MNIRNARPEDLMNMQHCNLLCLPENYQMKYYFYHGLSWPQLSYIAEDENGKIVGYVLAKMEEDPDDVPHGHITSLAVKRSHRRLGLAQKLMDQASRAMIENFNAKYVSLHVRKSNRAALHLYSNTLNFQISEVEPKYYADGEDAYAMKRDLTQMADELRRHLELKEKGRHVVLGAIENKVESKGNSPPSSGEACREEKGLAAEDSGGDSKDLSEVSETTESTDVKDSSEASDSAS
# UniProt Q13459: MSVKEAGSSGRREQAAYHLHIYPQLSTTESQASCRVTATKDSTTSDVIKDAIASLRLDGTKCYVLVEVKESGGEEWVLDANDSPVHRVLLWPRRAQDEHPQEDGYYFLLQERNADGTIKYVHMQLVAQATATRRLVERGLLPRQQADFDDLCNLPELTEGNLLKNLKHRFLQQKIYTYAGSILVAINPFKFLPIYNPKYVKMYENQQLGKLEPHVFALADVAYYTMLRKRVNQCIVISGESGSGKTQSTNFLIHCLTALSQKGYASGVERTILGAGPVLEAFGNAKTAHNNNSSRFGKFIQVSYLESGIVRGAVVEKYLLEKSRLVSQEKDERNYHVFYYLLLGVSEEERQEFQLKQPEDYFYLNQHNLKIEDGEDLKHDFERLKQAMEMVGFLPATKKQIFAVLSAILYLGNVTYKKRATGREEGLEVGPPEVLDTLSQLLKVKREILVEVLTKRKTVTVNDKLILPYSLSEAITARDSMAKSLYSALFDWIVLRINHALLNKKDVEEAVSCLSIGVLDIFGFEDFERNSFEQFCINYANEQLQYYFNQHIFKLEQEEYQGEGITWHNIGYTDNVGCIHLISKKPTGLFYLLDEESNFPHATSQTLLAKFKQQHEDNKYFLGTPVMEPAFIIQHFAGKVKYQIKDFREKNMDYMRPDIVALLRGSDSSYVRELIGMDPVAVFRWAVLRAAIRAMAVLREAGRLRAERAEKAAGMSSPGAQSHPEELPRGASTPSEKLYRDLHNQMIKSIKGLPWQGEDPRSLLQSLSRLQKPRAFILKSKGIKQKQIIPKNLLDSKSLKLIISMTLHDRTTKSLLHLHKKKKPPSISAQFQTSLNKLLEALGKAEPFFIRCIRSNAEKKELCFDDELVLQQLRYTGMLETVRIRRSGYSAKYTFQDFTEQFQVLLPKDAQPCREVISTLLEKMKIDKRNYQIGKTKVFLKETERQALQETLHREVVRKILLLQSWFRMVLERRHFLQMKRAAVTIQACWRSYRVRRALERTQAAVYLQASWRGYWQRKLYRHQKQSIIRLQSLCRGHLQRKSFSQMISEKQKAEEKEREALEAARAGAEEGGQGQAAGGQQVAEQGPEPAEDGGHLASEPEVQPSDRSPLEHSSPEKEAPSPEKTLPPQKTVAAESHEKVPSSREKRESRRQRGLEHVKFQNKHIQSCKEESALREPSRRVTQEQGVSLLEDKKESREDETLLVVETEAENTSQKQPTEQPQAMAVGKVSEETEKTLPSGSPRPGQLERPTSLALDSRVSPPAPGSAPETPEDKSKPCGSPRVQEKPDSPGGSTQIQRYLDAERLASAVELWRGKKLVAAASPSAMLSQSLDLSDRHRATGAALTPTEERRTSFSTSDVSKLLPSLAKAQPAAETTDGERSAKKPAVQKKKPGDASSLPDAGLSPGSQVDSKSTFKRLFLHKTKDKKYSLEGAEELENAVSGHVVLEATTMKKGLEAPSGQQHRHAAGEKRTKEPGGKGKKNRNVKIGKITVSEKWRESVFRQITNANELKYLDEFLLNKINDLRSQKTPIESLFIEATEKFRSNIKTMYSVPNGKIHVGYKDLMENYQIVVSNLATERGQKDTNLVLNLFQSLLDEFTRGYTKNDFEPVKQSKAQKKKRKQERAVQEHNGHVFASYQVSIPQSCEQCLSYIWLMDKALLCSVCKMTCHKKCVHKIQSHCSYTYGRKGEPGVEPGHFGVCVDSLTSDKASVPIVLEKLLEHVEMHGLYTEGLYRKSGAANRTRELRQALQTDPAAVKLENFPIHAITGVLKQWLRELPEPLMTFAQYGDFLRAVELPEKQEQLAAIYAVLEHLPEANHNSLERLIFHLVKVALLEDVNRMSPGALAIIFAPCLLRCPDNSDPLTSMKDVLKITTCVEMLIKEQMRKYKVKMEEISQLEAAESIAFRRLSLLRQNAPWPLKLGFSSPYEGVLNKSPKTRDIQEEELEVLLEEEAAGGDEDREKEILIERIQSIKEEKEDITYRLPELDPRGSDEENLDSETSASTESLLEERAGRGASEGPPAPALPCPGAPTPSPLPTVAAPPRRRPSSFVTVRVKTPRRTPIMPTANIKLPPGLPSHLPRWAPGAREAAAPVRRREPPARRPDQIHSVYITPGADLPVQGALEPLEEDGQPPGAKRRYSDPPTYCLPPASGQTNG
# UniProt Q9UBB6: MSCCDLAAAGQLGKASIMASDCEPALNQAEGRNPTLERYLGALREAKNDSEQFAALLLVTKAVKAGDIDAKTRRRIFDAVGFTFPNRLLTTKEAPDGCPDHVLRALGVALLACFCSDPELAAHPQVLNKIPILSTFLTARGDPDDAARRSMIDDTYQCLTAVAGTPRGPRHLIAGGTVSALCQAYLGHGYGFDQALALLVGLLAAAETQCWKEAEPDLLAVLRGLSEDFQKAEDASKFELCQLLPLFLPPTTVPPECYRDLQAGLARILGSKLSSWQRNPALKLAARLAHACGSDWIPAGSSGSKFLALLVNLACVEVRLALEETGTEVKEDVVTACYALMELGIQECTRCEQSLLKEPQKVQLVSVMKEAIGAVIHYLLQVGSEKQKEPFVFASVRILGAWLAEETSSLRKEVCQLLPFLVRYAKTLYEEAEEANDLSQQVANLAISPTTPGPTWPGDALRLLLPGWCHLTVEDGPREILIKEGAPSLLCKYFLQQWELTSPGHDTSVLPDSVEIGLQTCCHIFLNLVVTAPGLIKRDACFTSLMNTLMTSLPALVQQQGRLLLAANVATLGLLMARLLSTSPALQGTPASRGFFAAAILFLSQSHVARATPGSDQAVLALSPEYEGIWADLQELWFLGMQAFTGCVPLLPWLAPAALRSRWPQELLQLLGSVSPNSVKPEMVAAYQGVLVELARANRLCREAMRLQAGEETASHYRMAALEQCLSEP
# The list shows a part of the results.
# Compound: CC1Cc2ccccc2N1C(=O)C1CCCN(C1)C(=O)CCl (mixture of isomers) [TRIM25 ligand 11 (diastereomer mixture)]
# Experiment: probe-labelled cysteine peptide fold change vs DMSO (competition) (log2 fold change); higher = less target engagement (more negative = stronger competition)
# Conditions: 10 µM; THP-1; incubation time: 4 h
# 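Also: competitive chemoproteomic profiling in live THP-1 cells with an iodoacetamide desthiobiotin (IA-DTB) probe, comparing probe-labelled peptide intensities in compound-treated cells against DMSO-treated controls.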
row,Target,probe-labelled cysteine peptide fold change
1,NCBP1_Q09161_231_THVPMLQVWTADKPHPQEEYLDCLWAQIQK (UniProt Q09161),-0.033
2,NAP1L4_Q99733_250_ADPFSFEGPEIVDCDGCTIDWK (UniProt Q99733),0.0304
3,MYO6_Q9UM54_1236_QMELHPDKPPILLVAGKDDMEMCELNLEETGLTR (UniProt Q9UM54),-0.0479
4,MYO6_Q9UM54_587_HFAGAVCYETTQFVEK (UniProt Q9UM54),0.156
5,NAT10_Q9H0A0_517_DTLFCYHK (UniProt Q9H0A0),0.143
6,MYO6_Q9UM54_610_NNDALHMSLESLICESR (UniProt Q9UM54),0.0134
7,NBN_O60934_478_DEENQEMSSCK (UniProt O60934),-0.0173
8,MYL9_P24844_109_NAFACFDEEASGFIHEDHLR (UniProt P24844),-1.03e-05
9,NCAPG2_Q86XI2_498_ICPMEHILVR (UniProt Q86XI2),-0.00119
10,NCBP1_Q09161_477+483_ILDIVPPTFSALCPANPTCIYK (UniProt Q09161),0.0521
11,NCAPD3_P42695_588_HCDVSGMKEDLWILQDQCRDPAVSVR (UniProt P42695),-0.0841
12,NAA15_Q9BXJ9_238_LAVEETKGELLLQLCR (UniProt Q9BXJ9),-0.344
13,MYH9_P35579_988_KLEEEQIILEDQNCK (UniProt P35579),-0.0172
14,MYO19_Q96H55_755_VFMTDSMLELLECGR (UniProt Q96H55),-0.0496
15,NAT1_P18440_44_AVPFENLNIHCGDAMDLGLEAIFDQVVRR (UniProt P18440),-0.252
16,NAA10_P41227_17+21_NARPEDLMNMQHCNLLCLPENYQMK (UniProt P41227),-0.0777
17,MYO6_Q9UM54_514_EGLGVNEVHYVDNQDCIDLIEAK (UniProt Q9UM54),-0.0489
18,MYO9B_Q13459_1279_SKPCGSPR (UniProt Q13459),-0.0654
19,MYO9B_Q13459_863_KELCFDDELVLQQLR (UniProt Q13459),0.0766
20,NADSYN1_Q6IA69_686_CIENQVLQLER (UniProt Q6IA69),-0.0409
21,NAA10_P41227_21_NARPEDLMNMQHCNLLCLPENYQMK (UniProt P41227),0.0341
22,MYO6_Q9UM54_375_SAQSLEYCAELLGLDQDDLR (UniProt Q9UM54),-0.328
23,NCDN_Q9UBB6_415_EVCQLLPFLVR (UniProt Q9UBB6),0.00407

# Random excerpt: 2 entries already listed
row,Target,probe-labelled cysteine peptide fold change
5,NAT10_Q9H0A0_517_DTLFCYHK (UniProt Q9H0A0),0.143
12,NAA15_Q9BXJ9_238_LAVEETKGELLLQLCR (UniProt Q9BXJ9),-0.344
